{"sequences": {"note": "By UniProt entry, the sequences of proteins in these tests, tags left out. Where a name states a change or a piece, a line headed by the entry shows the natural chain unless it says otherwise.", "UniProt Q14573": "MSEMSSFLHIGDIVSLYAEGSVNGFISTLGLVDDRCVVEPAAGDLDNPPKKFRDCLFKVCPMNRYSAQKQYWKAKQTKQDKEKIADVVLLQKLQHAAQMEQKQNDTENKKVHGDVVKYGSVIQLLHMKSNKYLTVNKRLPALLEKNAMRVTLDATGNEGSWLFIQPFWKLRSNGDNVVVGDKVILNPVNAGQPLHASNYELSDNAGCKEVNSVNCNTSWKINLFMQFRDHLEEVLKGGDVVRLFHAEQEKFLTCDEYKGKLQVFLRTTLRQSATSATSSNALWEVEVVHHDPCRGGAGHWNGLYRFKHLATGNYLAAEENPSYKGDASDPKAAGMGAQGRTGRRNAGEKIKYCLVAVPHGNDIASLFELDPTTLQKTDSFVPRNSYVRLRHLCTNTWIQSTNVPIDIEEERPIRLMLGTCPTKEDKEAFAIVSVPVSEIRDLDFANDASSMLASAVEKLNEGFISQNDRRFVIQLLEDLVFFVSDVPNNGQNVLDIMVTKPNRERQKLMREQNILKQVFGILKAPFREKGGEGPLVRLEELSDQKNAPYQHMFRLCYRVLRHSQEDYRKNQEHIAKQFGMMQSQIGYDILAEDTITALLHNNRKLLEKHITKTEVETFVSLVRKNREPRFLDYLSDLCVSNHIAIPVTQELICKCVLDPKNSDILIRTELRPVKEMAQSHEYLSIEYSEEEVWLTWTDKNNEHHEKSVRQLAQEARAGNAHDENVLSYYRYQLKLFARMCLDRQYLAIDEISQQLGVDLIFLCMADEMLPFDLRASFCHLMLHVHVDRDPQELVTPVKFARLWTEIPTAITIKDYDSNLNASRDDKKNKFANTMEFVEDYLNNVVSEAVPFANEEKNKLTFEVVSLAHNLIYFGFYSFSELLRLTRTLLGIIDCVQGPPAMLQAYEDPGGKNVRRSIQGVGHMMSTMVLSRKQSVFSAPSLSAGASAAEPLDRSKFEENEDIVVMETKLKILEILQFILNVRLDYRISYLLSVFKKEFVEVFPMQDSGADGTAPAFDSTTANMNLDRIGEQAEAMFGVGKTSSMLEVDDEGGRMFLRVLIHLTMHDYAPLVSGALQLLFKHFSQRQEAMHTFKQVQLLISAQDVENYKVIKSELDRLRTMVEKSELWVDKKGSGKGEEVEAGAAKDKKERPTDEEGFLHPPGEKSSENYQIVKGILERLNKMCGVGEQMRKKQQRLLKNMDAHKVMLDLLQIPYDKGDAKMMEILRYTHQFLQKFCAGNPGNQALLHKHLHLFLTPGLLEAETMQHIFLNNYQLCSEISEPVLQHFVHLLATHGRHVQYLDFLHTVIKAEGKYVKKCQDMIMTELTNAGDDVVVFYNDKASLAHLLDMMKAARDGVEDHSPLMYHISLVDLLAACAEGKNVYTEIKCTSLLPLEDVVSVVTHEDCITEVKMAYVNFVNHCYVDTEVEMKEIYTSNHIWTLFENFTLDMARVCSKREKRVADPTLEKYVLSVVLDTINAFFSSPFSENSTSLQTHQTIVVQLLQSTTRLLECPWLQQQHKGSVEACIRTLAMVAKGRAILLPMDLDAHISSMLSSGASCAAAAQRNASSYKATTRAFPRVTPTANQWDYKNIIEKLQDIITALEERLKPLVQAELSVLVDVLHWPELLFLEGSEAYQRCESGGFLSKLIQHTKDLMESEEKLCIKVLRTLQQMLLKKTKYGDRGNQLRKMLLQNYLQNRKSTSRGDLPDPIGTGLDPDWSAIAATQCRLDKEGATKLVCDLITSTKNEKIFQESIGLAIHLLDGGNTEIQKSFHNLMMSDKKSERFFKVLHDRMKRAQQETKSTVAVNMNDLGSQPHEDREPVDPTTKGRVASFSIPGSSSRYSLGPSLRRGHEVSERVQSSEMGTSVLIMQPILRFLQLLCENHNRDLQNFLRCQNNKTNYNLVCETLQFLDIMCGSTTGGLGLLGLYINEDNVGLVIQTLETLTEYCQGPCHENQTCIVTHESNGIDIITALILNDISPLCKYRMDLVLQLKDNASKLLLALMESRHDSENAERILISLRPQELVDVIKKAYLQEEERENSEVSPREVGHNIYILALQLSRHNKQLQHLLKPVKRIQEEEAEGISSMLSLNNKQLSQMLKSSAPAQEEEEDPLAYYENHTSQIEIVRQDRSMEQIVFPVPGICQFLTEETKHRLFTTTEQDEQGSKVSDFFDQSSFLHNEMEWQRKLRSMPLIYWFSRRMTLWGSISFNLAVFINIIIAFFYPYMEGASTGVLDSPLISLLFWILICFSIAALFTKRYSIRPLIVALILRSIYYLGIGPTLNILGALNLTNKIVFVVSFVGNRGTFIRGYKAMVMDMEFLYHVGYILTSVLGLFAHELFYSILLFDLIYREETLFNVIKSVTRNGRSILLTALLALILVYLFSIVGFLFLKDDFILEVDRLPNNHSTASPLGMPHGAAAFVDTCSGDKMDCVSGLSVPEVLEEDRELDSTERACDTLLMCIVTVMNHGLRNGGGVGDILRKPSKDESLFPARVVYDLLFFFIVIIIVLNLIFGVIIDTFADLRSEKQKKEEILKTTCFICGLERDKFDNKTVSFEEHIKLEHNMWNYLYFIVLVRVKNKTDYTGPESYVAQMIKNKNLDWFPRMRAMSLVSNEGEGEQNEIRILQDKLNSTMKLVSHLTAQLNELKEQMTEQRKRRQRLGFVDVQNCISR"}, "source": "the supplement of paper PMC11732987", "about": "“Enantioselective OTUD7B fragment discovery through chemoproteomics screening and high-throughput optimisation” (Communications Chemistry, 2025)", "note": "The list shows a part of the results. The data scatter; read single values as rough."}
{"target": "T1, ITPR3 C1375 (UniProt Q14573)", "T1 sequence (whole entry)": "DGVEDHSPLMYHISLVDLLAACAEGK", "experiment": "log2 mean competition ratio of IA-DTB cysteine labelling (DMSO/compound) (log2 ratio); higher = stronger cysteine engagement by compound", "conditions": "50 µM; treatment time: 4 h; cell line lysate: HEK293T", "procedure": "(§1)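 IA-DTB competitive cysteine chemoproteomics in HEK293T RIPA lysate. Lysates were treated with compound 29 or 30 at 50 or 200 µM for 4 h, then IA-DTB (500 µM, 1 h), trypsin-digested, NeutrAvidin-enriched and analysed by diaPASEF. Competition ratio = intensity DMSO / intensity compound (n=4 treated, n=64 DMSO); binding: mean log2 CR ≥ 1 and p ≤ 0.05 plus QC filters. Target is the cysteine site.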"}
{"smiles": "O=C(CCl)N[C@@H]1CCCc2ccccc21", "log2 mean competition ratio": -0.203}
{"smiles": "O=C(CCl)N[C@H]1CCCc2ccccc21", "log2 mean competition ratio": 0.507}
{"target": "T1, ITPR3 C1375", "experiment": "log2 mean competition ratio of IA-DTB cysteine labelling (DMSO/compound) (log2 ratio); higher = stronger cysteine engagement by compound", "conditions": "200 µM; treatment time: 4 h; cell line lysate: HEK293T", "procedure": "as §1"}
{"smiles": "O=C(CCl)N[C@@H]1CCCc2ccccc21", "log2 mean competition ratio": -0.0996}
{"smiles": "O=C(CCl)N[C@H]1CCCc2ccccc21", "log2 mean competition ratio": -0.0157}
